Measured values: PubChem BioAssay AID540275 (National Center for Advancing Translational Sciences (NCATS), 2011)
The campaign covered roughly 320,000 compounds. About 620 (0.19%) were called active. The inconclusive results got no clear call from the source; some entries with a clear call stand among them for comparison. No stated cut-off is given here; in the data, active means activation above about 80%; inconclusive means between about 30% and that limit; inactive means weaker than that.

Sequences of proteins named here, by UniProt entry; tags and fusion partners are left off.
UniProt Q8NER1, whole entry, looked up: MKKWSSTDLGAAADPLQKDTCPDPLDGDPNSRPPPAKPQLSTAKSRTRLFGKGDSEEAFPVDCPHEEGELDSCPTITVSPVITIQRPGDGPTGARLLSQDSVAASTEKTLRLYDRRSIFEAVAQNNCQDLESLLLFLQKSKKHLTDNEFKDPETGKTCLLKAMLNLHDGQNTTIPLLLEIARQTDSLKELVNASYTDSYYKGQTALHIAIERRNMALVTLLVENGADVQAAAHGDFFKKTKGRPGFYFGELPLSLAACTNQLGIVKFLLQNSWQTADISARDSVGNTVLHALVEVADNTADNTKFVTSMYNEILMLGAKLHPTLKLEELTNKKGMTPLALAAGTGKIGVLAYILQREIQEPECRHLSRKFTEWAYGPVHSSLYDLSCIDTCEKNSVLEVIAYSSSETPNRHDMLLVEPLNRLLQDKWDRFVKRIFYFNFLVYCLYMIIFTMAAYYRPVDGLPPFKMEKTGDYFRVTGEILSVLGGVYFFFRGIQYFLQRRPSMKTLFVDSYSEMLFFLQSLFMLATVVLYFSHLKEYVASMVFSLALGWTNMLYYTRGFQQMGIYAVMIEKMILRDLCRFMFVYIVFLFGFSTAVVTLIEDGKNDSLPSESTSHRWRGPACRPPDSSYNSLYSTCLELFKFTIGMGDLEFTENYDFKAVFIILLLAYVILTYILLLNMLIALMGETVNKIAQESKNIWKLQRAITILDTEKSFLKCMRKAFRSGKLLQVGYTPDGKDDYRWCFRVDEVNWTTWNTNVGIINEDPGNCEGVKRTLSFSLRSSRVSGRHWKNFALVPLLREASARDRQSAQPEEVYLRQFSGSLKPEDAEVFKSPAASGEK

Each compound was assayed against Transient receptor potential cation channel subfamily V member 1 (Homo sapiens) (UniProt Q8NER1) (assay: HTS Assay for Compounds that Act as Agonists of the Vanilloid Receptor 1). Conditions: TRPV1-expressing cells, Fluo-8 calcium influx, agonist mode; at 8.33 µM, hits give high values.
Procedure, shortened: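 Fluo-8 calcium influx in TRPV1-expressing cells, kinetic read (ex 480/em 520 nm). Compound added and read 3 min for agonist activity, followed by capsaicin at EC20 final and 2 min further read for enhancement.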
Further: 0% is about no effect.

Structure (SMILES)	activation
Cc1ccc(OCC(=O)Nc2ccc3c(c2)C(=O)NC3=O)cc1	inconclusive: 63.6%
O=C(NCC1CCCO1)c1ccc(Oc2ccc([N+](=O)[O-])cc2Cl)cc1 (stereo unspecified)	inconclusive: 34.3%
CN(C)c1ccc(C(C#N)c2ccc(Cl)cc2)nn1 (stereo unspecified)	inactive: 3.48%
CCOC(=O)C1CCCN(CCC(=O)Nc2cc(C)cc(C)c2)C1 (stereo unspecified)	inactive: 0.0572%
O=C(NCCc1ccc(C(F)(F)F)cc1)c1ccc2c(c1)OCO2	inconclusive: 48.2%
c1ccc(N2N=C(c3cccs3)CC2c2ccco2)cc1 (stereo unspecified)	inactive: 6.16%
Oc1c(C=Nc2ccccc2)sc(=S)n1Cc1ccccc1	inconclusive: 48.7%
CCOC(=O)c1nnc(-c2ccc(C)cc2)nc1N1CCSCC1	inconclusive: 35.7%
COc1ccc(-c2cc(C(=O)OCC(=O)N3CCCC3)c3ccccc3n2)cc1	inconclusive: 64.8%
CCN1CCN(c2ccc(S(=O)(=O)N3CCOCC3)cc2NC(=O)C(C)Oc2cccc(Cl)c2)CC1 (stereo unspecified)	inconclusive: 42.3%
COc1ccc(CC(=O)N2CCN(c3cccc(Cl)c3)CC2)cc1OC	active: 97.6%
Cc1c(C(C)(C)C)s/c(=N/S(=O)(=O)c2ccccc2)n1C	inconclusive: 32.3%
N#CCC(=O)N/N=C/c1ccc(Cl)cc1	inactive: -0.0976%
O=C(O)CSc1nc2ccccc2n1Cc1ccccc1	inactive: -0.927%
COc1ccc(NC(=S)Nc2ncccc2C)cc1OC	inactive: -4.77%
Cc1cc(NC(=O)CC2CCCC2)n(-c2nc3ccccc3[nH]2)n1	inconclusive: 65.9%
CN(CCc1ccccn1)C(=O)Nc1ccc(C(C)(C)C)cc1	inconclusive: 64.2%
c1ccc(Nc2c3c(nc4ccccc24)CCC3)cc1	inconclusive: 40.9%
CCOc1ncccc1C(=O)Nc1ccccc1C(=O)NCc1ccc2c(c1)OCO2	inconclusive: 51.2%
Cn1ccc(C(=O)Oc2ccc(C(=O)Nc3ccc(F)cc3F)cc2)n1	inconclusive: 65.7%
CC(NC(=O)c1ccc(F)cc1)c1ccc2c(c1)CCCC2 (stereo unspecified)	inconclusive: 56.8%
O=C(Nc1ccc(Cl)cc1)c1cncs1	inactive: 20.7%
Cc1ccc(NC(=O)c2ccc(OC(=O)COc3ccc(Cl)cc3C)cc2)cc1	inconclusive: 60.9%
CCOC(=O)[C@H]1[C@H]2COc3ccc(OC)cc3[C@@H]2N2C(=O)c3cc(OC)ccc3NC(=O)[C@@]12C	active: 97.1%
O=C(N/N=C/c1cc(Cl)ccc1O)c1ccc(Br)cc1	inconclusive: 51.5%
COc1ccccc1Oc1ccc(N/C=C2/CCCC2=O)cc1	inconclusive: 50.3%

Looked up above.
Entry of O=C(N/N=C/c1cc(Cl)ccc1O)c1ccc(Br)cc1 under activation: inconclusive: 51.5%
Entry of CCOC(=O)c1nnc(-c2ccc(C)cc2)nc1N1CCSCC1 under activation: inconclusive: 35.7%
